Test results from the supplement of paper PMC10849652.
The list shows a part of the results.

Protein sequences, listed by entry. Tags and fused reporters are not part of them. Lines headed by an entry give the natural chain unless they say otherwise; changes in a name come on top.
UniProt O00273: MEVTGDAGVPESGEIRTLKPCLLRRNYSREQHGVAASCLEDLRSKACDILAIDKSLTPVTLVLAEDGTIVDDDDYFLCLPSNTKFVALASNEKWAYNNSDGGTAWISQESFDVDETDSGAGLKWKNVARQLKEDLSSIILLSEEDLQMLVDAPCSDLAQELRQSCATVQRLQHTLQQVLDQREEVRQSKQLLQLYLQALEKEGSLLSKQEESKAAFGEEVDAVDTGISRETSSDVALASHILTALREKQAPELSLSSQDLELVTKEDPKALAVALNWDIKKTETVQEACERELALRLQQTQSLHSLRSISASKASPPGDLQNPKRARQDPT
UniProt Q9Y394: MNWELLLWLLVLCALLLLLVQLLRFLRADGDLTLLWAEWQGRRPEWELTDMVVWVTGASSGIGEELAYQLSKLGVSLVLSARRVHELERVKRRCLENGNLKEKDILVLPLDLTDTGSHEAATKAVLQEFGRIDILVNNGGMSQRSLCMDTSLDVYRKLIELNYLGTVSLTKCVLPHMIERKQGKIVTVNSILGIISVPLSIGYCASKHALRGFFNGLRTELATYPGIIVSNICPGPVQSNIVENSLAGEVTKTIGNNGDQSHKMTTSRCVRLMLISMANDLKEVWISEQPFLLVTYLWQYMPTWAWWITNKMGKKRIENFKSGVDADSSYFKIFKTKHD
UniProt Q9UNQ2: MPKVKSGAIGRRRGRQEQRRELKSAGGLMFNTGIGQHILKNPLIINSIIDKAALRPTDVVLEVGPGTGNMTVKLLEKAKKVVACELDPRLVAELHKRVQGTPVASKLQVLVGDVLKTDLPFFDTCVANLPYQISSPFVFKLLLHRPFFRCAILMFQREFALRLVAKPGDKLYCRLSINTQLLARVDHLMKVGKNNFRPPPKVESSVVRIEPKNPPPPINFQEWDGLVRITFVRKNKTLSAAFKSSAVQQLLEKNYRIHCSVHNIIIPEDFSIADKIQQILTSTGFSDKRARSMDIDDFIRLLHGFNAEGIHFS
UniProt Q9BTC0, whole entry, looked up: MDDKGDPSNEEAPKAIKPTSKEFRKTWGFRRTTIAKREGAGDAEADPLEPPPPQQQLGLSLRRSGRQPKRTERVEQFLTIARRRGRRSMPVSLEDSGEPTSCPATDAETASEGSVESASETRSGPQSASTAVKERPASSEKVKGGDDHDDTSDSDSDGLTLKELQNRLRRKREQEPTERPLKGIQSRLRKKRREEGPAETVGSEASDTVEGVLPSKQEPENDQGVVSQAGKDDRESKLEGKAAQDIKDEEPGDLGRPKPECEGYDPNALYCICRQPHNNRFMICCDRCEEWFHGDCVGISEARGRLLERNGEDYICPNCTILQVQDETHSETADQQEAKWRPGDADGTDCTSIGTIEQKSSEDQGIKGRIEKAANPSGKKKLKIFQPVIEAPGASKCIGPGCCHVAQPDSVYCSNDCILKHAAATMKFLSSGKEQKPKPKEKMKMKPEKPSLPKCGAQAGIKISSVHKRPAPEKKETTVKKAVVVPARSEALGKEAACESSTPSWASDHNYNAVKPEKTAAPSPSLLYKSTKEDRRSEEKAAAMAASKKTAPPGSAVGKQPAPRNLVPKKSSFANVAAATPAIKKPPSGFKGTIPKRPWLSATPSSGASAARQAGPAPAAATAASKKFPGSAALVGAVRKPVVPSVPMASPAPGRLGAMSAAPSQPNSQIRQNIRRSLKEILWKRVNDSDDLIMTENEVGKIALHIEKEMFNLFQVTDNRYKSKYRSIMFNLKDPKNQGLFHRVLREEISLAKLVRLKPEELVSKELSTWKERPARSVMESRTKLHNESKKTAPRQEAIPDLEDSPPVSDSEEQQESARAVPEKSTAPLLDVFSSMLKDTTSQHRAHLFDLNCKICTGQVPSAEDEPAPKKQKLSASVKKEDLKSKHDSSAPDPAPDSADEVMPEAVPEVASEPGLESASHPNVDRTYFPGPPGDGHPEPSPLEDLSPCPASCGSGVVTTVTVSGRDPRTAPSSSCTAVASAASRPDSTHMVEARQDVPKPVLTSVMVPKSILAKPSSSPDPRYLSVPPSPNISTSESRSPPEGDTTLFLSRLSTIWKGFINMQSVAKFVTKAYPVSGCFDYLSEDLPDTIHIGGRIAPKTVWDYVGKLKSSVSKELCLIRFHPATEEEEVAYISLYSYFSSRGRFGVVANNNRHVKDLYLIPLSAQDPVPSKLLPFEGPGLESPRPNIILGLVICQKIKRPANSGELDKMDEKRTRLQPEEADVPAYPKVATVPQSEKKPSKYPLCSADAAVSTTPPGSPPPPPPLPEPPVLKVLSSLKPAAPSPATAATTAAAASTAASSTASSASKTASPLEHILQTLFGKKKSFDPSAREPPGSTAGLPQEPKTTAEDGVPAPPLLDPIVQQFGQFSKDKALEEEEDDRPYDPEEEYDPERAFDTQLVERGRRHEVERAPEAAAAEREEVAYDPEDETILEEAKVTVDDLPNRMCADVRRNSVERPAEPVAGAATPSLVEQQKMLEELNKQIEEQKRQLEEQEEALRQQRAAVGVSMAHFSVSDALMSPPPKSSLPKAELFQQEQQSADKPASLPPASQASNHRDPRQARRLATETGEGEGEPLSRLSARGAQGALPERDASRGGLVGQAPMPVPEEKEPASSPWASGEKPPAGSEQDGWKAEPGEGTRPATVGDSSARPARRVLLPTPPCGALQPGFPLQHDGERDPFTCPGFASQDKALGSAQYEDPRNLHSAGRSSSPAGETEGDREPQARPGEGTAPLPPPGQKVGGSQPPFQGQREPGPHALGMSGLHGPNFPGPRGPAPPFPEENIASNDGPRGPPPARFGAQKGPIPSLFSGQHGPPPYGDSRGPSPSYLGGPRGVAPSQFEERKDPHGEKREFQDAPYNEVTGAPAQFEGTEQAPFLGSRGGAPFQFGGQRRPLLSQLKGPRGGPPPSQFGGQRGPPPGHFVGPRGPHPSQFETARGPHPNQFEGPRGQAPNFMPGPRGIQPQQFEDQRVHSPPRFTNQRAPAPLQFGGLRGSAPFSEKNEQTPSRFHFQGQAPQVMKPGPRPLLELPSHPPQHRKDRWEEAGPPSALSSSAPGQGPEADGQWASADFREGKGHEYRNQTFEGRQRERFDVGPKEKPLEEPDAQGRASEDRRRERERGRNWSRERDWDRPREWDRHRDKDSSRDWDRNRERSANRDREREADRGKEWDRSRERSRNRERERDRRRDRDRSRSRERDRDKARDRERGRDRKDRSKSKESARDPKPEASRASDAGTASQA
UniProt Q99766: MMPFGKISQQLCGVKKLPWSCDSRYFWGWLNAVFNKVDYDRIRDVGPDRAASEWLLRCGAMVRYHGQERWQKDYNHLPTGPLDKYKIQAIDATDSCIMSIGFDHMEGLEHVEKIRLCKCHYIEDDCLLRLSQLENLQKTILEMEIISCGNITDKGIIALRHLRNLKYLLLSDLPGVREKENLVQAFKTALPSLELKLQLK
UniProt Q02127: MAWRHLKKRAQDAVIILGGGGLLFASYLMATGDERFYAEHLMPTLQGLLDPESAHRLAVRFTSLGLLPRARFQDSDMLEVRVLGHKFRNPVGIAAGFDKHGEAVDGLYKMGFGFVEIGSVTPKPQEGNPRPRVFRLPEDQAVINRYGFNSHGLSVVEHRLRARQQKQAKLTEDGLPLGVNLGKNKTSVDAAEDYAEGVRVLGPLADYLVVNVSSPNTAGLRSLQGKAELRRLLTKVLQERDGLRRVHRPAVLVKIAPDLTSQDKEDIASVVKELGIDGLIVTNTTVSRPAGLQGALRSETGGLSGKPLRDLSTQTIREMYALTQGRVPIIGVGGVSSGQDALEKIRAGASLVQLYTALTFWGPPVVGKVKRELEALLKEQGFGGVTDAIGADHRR
UniProt O00571: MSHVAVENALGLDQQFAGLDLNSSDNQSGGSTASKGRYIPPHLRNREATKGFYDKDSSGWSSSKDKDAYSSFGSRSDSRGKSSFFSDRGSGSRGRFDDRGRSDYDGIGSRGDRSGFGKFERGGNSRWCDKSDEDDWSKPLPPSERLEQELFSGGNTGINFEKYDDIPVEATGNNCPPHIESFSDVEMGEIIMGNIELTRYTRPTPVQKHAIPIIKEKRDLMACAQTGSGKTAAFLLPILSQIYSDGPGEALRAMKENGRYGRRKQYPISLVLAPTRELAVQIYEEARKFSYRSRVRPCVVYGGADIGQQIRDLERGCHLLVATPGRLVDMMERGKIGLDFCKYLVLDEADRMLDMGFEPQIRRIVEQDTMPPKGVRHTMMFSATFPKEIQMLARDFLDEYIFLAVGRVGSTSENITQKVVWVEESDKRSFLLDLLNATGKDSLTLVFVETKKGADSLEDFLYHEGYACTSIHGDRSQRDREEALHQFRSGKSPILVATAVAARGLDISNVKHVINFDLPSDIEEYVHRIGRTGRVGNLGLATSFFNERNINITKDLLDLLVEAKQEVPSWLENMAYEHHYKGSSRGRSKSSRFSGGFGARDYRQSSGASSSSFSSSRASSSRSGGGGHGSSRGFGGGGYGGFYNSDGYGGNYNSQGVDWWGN
UniProt Q8NDZ4: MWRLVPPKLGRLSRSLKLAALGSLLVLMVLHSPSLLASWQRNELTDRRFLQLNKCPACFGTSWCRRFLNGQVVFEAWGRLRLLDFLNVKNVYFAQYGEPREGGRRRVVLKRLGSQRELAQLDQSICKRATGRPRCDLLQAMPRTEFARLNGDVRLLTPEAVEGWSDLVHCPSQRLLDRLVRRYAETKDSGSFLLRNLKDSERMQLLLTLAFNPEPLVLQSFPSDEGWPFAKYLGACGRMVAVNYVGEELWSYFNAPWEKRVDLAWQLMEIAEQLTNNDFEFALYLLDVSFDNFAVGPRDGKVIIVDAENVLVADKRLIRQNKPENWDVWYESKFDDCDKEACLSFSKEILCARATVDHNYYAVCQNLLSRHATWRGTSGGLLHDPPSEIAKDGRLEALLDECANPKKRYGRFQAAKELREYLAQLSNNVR
UniProt Q8WYQ5: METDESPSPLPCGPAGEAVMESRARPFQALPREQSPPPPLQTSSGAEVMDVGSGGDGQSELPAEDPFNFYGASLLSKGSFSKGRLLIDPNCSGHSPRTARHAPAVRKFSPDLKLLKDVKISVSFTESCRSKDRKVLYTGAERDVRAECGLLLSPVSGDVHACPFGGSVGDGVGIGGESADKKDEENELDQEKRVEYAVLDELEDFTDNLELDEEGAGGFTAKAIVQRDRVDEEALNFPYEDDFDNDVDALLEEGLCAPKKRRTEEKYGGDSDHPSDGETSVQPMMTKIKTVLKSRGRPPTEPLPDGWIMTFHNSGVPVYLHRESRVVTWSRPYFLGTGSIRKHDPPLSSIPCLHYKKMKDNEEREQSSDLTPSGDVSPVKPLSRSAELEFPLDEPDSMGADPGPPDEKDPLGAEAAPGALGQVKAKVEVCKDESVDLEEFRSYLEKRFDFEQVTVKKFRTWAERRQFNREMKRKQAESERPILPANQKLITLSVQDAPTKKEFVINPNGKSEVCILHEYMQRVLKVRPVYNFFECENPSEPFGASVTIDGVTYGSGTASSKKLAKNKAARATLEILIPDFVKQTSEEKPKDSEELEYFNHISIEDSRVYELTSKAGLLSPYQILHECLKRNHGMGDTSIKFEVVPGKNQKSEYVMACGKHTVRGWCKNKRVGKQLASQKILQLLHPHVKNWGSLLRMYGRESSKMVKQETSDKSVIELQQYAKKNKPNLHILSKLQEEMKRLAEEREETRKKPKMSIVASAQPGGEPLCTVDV
UniProt P35659: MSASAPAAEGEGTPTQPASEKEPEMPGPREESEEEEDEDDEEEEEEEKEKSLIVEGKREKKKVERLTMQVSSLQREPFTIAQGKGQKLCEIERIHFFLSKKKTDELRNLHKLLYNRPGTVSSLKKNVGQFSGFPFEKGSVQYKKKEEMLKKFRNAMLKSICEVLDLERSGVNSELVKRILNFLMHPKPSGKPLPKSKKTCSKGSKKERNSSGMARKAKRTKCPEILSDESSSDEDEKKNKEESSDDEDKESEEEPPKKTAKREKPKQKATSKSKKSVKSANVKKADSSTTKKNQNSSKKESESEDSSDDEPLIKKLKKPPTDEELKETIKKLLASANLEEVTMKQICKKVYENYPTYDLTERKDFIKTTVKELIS
UniProt Q92466: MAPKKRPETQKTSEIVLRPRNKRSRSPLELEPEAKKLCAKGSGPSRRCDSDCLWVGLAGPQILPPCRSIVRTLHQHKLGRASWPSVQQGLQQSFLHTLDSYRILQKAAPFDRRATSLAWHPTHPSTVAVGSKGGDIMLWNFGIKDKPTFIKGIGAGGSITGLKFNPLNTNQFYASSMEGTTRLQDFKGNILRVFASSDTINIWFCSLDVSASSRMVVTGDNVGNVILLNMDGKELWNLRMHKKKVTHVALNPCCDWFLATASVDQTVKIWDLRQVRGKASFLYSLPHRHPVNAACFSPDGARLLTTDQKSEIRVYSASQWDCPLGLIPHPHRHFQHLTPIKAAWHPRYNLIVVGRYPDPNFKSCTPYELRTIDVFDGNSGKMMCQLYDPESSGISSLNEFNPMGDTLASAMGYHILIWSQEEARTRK

Experiments:
Assay in all cases: log2 fold change, soluble protein after heating vs DMSO (PISA); higher = thermal stabilisation; K562 cells, 10 uM, 30 min; active = over 0.2 and 3.5 SD of the protein, either way, in both replicates (recomputed)
saracatinib = compound: CN1CCN(CCOc2cc(OC3CCOCC3)c3c(Nc4c(Cl)ccc5c4OCO5)ncnc3c2)CC1 [saracatinib]
Method in brief: (§1)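 K562 cells at 2×10^6 cells/mL were treated with 10 μM compound for 30 min. Aliquots were heated for 3 min across 48°C-58°C, pooled, and extracted in PBS with 0.5% NP-40 at 4°C; soluble protein was the supernatant after 21,000xg for 90 min. Soluble protein was quantified by TMTpro 16plex LC-MS/MS with channel sums equalised, and reported as log2 fold change in thermal stability against DMSO controls, with values from duplicates.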

sotrastaurin = compound: CN1CCN(c2nc(C3=C(c4c[nH]c5ccccc45)C(=O)NC3=O)c3ccccc3n2)CC1 [sotrastaurin]
Method in brief: as §1

alvocidib = compound: CN1CC[C@H](c2c(O)cc(O)c3c(=O)cc(-c4ccccc4Cl)oc23)[C@H](O)C1 [alvocidib]
Method in brief: as §1

Tubastatin A = compound: CN1CCc2c(c3ccccc3n2Cc2ccc(C(=O)NO)cc2)C1 [Tubastatin A]
Method in brief: as §1

[1] = compound: CNC(=O)C1=CC=CC=C1NC2=NC(=NC=C2Cl)NC3=C(C=C(C=C3)N4CCOCC4)OC
Method in brief: as §1

defactinib = compound: CNC(=O)c1ccc(Nc2ncc(C(F)(F)F)c(NCc3nccnc3N(C)S(C)(=O)=O)n2)cc1 [defactinib]
Method in brief: as §1

rucaparib = compound: CNCc1ccc(-c2[nH]c3cc(F)cc4c3c2CCNC4=O)cc1 [rucaparib]
Method in brief: as §1

[2] = compound: CNc1nc(-c2ccc3c(N)n[nH]c3c2)cc(N2C[C@@H](C(=O)NC3CCCCC3)CC[C@H]2C)n1
Method in brief: as §1

encorafenib = compound: COC(=O)N[C@@H](C)CNc1nccc(-c2cn(C(C)C)nc2-c2cc(Cl)cc(NS(C)(=O)=O)c2F)n1 [encorafenib]
Method in brief: as §1

[3] = compound: COC(=O)[C@H](CCSC)NC(=O)C1=C(C=C(C=C1)NC[C@H](CS)N)C2=CC=CC=C2
Method in brief: as §1

[4] = compound: COC1=CC=C(C=C1)CN2C=CC3=C2C=C(C=C3)C(=O)NO
Method in brief: as §1

filanesib = compound: CON(C)C(=O)N1N=C(c2cc(F)ccc2F)S[C@@]1(CCCN)c1ccccc1 [filanesib]
Method in brief: as §1

zotarolimus = compound: CO[C@H]1C[C@@H]2CC[C@@H](C)[C@@](O)(O2)C(=O)C(=O)N2CCCC[C@H]2C(=O)O[C@H]([C@H](C)C[C@@H]2CC[C@H](n3cnnn3)[C@H](OC)C2)CC(=O)[C@H](C)/C=C(\C)[C@@H](O)[C@@H](OC)C(=O)[C@H](C)C[C@H](C)/C=C/C=C/C=C/1C [zotarolimus]
Method in brief: as §1

idasanutlin = compound: COc1cc(C(=O)O)ccc1NC(=O)[C@@H]1N[C@@H](CC(C)(C)C)[C@](C#N)(c2ccc(Cl)cc2F)[C@H]1c1cccc(Cl)c1F [idasanutlin]
Method in brief: as §1

alisertib = compound: COc1cc(Nc2ncc3c(n2)-c2ccc(Cl)cc2C(c2c(F)cccc2OC)=NC3)ccc1C(=O)O [alisertib]
Method in brief: as §1

[5] = compound: COc1cc2nc(-c3cc(F)ccc3O)nc(N[C@@H]3CNC[C@H]3C(C)(C)O)c2cc1OC
Method in brief: as §1

gefitinib = compound: COc1cc2ncnc(Nc3ccc(F)c(Cl)c3)c2cc1OCCCN1CCOCC1 [gefitinib]
Method in brief: as §1

[6] = compound: COc1cccc2cc(-c3nc([C@H]4CC[C@H](C(=O)O)CC4)n4ncnc(N)c34)[nH]c12
Method in brief: as §1

lapatinib = compound: CS(=O)(=O)CCNCc1ccc(-c2ccc3ncnc(Nc4ccc(OCc5cccc(F)c5)c(Cl)c4)c3c2)o1 [lapatinib]
Method in brief: as §1

pictilisib = compound: CS(=O)(=O)N1CCN(Cc2cc3nc(-c4cccc5[nH]ncc45)nc(N4CCOCC4)c3s2)CC1 [pictilisib]
Method in brief: as §1

Measured: log2 fold change

DFFA (UniProt O00273)
inactive: saracatinib 0.057 | sotrastaurin -0.009 | alvocidib -0.041 | Tubastatin A -0.028 | [1] -0.044 | defactinib -0.029 | rucaparib -0.117 | [2] -0.068 | encorafenib -0.005 | [3] 0.039 | [4] 0.007 | filanesib 0.014 | zotarolimus 0.01 | idasanutlin -0.038 | alisertib -0.057 | [5] 0.023 | gefitinib -0.012 | [6] -0.025 | lapatinib -0.012 | pictilisib 0.013

DHRS7 (UniProt Q9Y394)
inactive: saracatinib 0.055 | sotrastaurin -0.035 | alvocidib 0.015 | Tubastatin A -0.035 | [1] -0.025 | defactinib -0.06 | rucaparib 0.003 | [2] -0.074 | encorafenib -0.008 | [3] -0.028 | [4] -0.041 | filanesib -0.086 | zotarolimus -0.02 | idasanutlin -0.015 | alisertib -0.046 | [5] -0.007 | gefitinib 0.041 | [6] 0.032 | lapatinib 0.032 | pictilisib -0.038

DIMT1 (UniProt Q9UNQ2)
inactive: saracatinib -0.08 | sotrastaurin 0.002 | alvocidib 0.261 | Tubastatin A 0.066 | [1] 0.019 | defactinib 0.29 | rucaparib 0.214 | [2] 0.085 | encorafenib 0.131 | [3] 0.015 | [4] -0.02 | filanesib 0.257 | zotarolimus -0.02 | idasanutlin 0.095 | alisertib 0.094 | [5] -0.055 | gefitinib -0.032 | [6] -0.193 | lapatinib 0.11 | pictilisib -0.097

DIDO1 (UniProt Q9BTC0)
inactive: saracatinib -0.188 | sotrastaurin -0.03 | alvocidib -0.057 | Tubastatin A 0.216 | [1] -0.07 | rucaparib 0.093 | [2] 0.069 | encorafenib 0.046 | [4] -0.011 | filanesib 0.143 | zotarolimus 0.048 | idasanutlin 0.103 | alisertib 0.378 | [5] -0.087 | [6] 0.031 | lapatinib 0.193 | pictilisib 0.087

DENND6A (UniProt Q8IWF6)
inactive: saracatinib 0.038 | sotrastaurin -0.109 | alvocidib -0.017 | Tubastatin A -0.056 | [1] 0.079 | defactinib 0.066 | rucaparib 0.084 | [2] -0.1 | encorafenib -0.009 | [3] 0.048 | [4] -0.008 | filanesib 0.042 | zotarolimus 0.03 | idasanutlin -0.032 | alisertib -0.125 | [5] 0.057 | gefitinib -0.104 | [6] 0.1 | lapatinib 0.074 | pictilisib 0.28

DLG3 (UniProt Q92796)
inactive: saracatinib 0.05 | sotrastaurin 0.048 | alvocidib -0.115 | Tubastatin A -0.055 | [1] -0.051 | defactinib 0.022 | [2] 0.021 | [3] -0.098 | [4] -0.112 | filanesib 0.06 | zotarolimus -0.03 | idasanutlin 0.013 | alisertib 0.096 | [5] 0.003 | gefitinib 0.058 | [6] -0.074 | lapatinib -0.121 | pictilisib 0.007

DDX20 (UniProt Q9UHI6)
inactive: saracatinib -0.153 | sotrastaurin -0.361 | alvocidib 0.153 | Tubastatin A -0.024 | [1] 0.119 | rucaparib 0.398 | [2] 0.02 | encorafenib 0.296 | [4] -0.047 | filanesib 0.286 | zotarolimus 0.068 | idasanutlin 0.127 | alisertib 0.184 | [5] -0.318 | gefitinib 0.085 | [6] -0.339 | lapatinib -0.031 | pictilisib -0.033

DMXL2 isoform 3 (UniProt Q8TDJ6)
inactive: saracatinib -0.22 | sotrastaurin 0.133 | alvocidib 0.139 | Tubastatin A -0.001 | [1] -0.092 | defactinib 0.018 | [2] -0.039 | [3] 0.021 | filanesib 0.045 | zotarolimus -0.178 | idasanutlin 0.011 | pictilisib 0.239

DMAC2L (UniProt Q99766)
inactive: saracatinib -0.046 | sotrastaurin 0.097 | alvocidib -0.072 | Tubastatin A 0 | [1] -0.025 | defactinib 0.037 | rucaparib -0.036 | [2] -0.041 | encorafenib -0.035 | [3] 0.039 | [4] -0.009 | filanesib -0.012 | zotarolimus 0 | idasanutlin -0.04 | alisertib -0.068 | [5] 0.133 | gefitinib -0.02 | [6] 0.024 | lapatinib 0.021 | pictilisib 0.005

DHODH (UniProt Q02127)
inactive: saracatinib 0.025 | sotrastaurin 0.021 | alvocidib -0.009 | Tubastatin A -0.013 | [1] -0.015 | defactinib -0.041 | rucaparib -0.001 | [2] -0.067 | encorafenib -0.011 | [3] 0.001 | [4] -0.008 | filanesib -0.014 | zotarolimus -0.031 | idasanutlin 0.007 | alisertib -0.024 | [5] 0.051 | gefitinib 0.011 | [6] 0.061 | lapatinib -0.065 | pictilisib -0.003

DLST (UniProt P36957)
inactive: saracatinib 0.023 | sotrastaurin -0.006 | alvocidib 0.078 | Tubastatin A -0.005 | [1] -0.057 | defactinib 0.074 | rucaparib 0.061 | [2] 0.005 | encorafenib 0 | [3] 0.041 | [4] 0.023 | filanesib 0.013 | zotarolimus -0.04 | idasanutlin 0.015 | alisertib -0.077 | [5] -0.044 | gefitinib -0.025 | [6] -0.027 | lapatinib 0.036 | pictilisib -0.011

DHX29 (UniProt Q7Z478)
inactive: saracatinib -0.016 | sotrastaurin -0.032 | alvocidib 0.09 | Tubastatin A 0.012 | [1] 0.031 | defactinib 0.115 | rucaparib 0.141 | [2] 0.033 | encorafenib 0.079 | [3] -0.027 | [4] 0.025 | filanesib 0.276 | zotarolimus -0.006 | idasanutlin 0.1 | alisertib 0.019 | [5] 0.06 | gefitinib 0.008 | [6] -0.078 | lapatinib 0.039 | pictilisib -0.126

DDX3X (UniProt O00571)
inactive: saracatinib -0.256 | sotrastaurin -0.126 | alvocidib 0.244 | Tubastatin A 0.081 | [1] -0.003 | defactinib 0.415 | rucaparib 0.678 | [2] 0.114 | encorafenib 0.18 | [3] -0.083 | [4] 0.034 | filanesib 0.806 | zotarolimus 0.043 | idasanutlin 0.441 | alisertib 0.113 | [5] -0.075 | gefitinib 0.047 | [6] -0.529 | lapatinib 0.133 | pictilisib -0.055

DIPK2A (UniProt Q8NDZ4)
inactive: saracatinib 0.111 | sotrastaurin 0.005 | alvocidib -0.188 | Tubastatin A 0.253 | [1] -0.025 | defactinib 0.048 | [2] 0.1 | [3] -0.051 | [4] 0.072 | filanesib 0.017 | zotarolimus -0.097 | idasanutlin 0.057 | gefitinib -0.004

Two records drawn at random from those above:
DLG3 (UniProt Q92796)
inactive: saracatinib 0.05 | sotrastaurin 0.048 | alvocidib -0.115 | Tubastatin A -0.055 | [1] -0.051 | defactinib 0.022 | [2] 0.021 | [3] -0.098 | [4] -0.112 | filanesib 0.06 | zotarolimus -0.03 | idasanutlin 0.013 | alisertib 0.096 | [5] 0.003 | gefitinib 0.058 | [6] -0.074 | lapatinib -0.121 | pictilisib 0.007

DLST (UniProt P36957)
inactive: saracatinib 0.023 | sotrastaurin -0.006 | alvocidib 0.078 | Tubastatin A -0.005 | [1] -0.057 | defactinib 0.074 | rucaparib 0.061 | [2] 0.005 | encorafenib 0 | [3] 0.041 | [4] 0.023 | filanesib 0.013 | zotarolimus -0.04 | idasanutlin 0.015 | alisertib -0.077 | [5] -0.044 | gefitinib -0.025 | [6] -0.027 | lapatinib 0.036 | pictilisib -0.011

Next part.

DGCR8 (UniProt Q8WYQ5)
inactive: saracatinib -0.115 | sotrastaurin -0.04 | alvocidib 0.169 | Tubastatin A 0.071 | [1] -0.03 | defactinib 0.02 | rucaparib 0.352 | [2] 0.158 | encorafenib 0.221 | [3] -0.051 | [4] -0.009 | filanesib 0.345 | zotarolimus 0.11 | idasanutlin 0.313 | alisertib -0.114 | [5] -0.08 | gefitinib -0.04 | [6] -0.034 | lapatinib 0.227 | pictilisib -0.085

DEK (UniProt P35659)
inactive: saracatinib -0.02 | sotrastaurin -0.044 | alvocidib -0.127 | Tubastatin A 0.022 | [1] -0.022 | defactinib -0.136 | rucaparib -0.014 | [2] -0.003 | encorafenib 0.089 | [3] -0.042 | [4] 0.179 | filanesib -0.03 | zotarolimus 0.093 | idasanutlin -0.006 | alisertib 0.002 | [5] 0.026 | gefitinib 0.019 | [6] -0.018 | lapatinib -0.016 | pictilisib 0.035

DDB2 (UniProt Q92466)
inactive: saracatinib 0.078 | sotrastaurin 0.254 | alvocidib -0.065 | Tubastatin A -0.047 | [1] -0.08 | defactinib 0.06 | [2] -0.048 | [3] 0.059 | filanesib -0.479 | zotarolimus -0.007 | idasanutlin 0.009 | alisertib -0.027 | [5] 0.002 | gefitinib -0.033 | [6] 0.063 | lapatinib 0.033 | pictilisib -0.034
